We go through 3 molecules from PMC5951908.

These are yes or no findings as the source states them, for the method shown. Binding seen in cells or lysates may run through a third protein. Some binding calls cover weakened binding; strength is not graded here.

The target of test [1] is T1, Aurora A (human (endogenous in HeLa)) (UniProt O14965).
T1 sequence: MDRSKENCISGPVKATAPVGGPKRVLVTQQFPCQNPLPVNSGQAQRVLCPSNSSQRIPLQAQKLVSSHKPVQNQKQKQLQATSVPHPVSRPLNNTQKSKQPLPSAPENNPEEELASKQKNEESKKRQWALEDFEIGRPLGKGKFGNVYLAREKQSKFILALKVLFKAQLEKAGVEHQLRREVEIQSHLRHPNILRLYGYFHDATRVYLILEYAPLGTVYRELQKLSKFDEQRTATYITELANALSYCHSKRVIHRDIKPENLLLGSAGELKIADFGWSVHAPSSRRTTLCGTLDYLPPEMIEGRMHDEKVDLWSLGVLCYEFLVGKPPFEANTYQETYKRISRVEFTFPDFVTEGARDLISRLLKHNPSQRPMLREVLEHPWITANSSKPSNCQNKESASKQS
In words: co-IP; mitotic HeLa chromatin extract (micrococcal nuclease digest, 300 mM NaCl); overnight immunoprecipitation with rabbit anti-Aurora-A (Abcam Ab12875), protein G Dynabeads, washes with 300 mM NaCl and 0.1% IGEPAL, western blot. On the technique in general: Immunoblotting shows a protein as a band on a membrane.

Test [2] deals with CENP-A (human (endogenous in HeLa)) (UniProt P49450). In words: co-IP; HeLa chromatin extract (micrococcal nuclease digest, 300 mM NaCl); overnight immunoprecipitation with in-house goat anti-CENP-A antibody, protein G Dynabeads, washes with 300 mM NaCl and 0.1% IGEPAL, elution with the immunising peptide, western blot.

As for CENP-A (from UniProt P49450 1-140), the binding entry in test [1] is on record as “binds”.
On to NDC80 (from UniProt O14777 1-642), for which the binding result in test [2] and in test [1] was “binds” in each case.

B1: Aurora A (enzyme, UniProt O14965 1-403)
chain: T1 sequence
On to B1, for which the binding result in test [2] is recorded as “binds”.
